In article PMC3250484, “Molecular Networks in FGF Signaling: Flotillin-1 and Cbl-Associated Protein Compete for the Binding to Fibroblast Growth Factor Receptor Substrate 2” (PLoS ONE, 2012):
Positions count from the first letter of the chain named. These are yes or no findings as the source states them, for the method shown. For some assays here: In cells and extracts the contact can be indirect. Some entries that bind do so weakly or less than the wild type. For some assays here: Tags and fused reporters may be left off the sequences shown.

Experiments:
[1] = biological target: T1, endogenous FRS2 from mouse tissue (brain, liver, kidney) (mouse (endogenous in brain, liver and kidney)) (UniProt Q8C180); assay: co-IP; FRS2 immunoprecipitated from lysates of 25 mg mouse tissue (brain, liver, kidney), antibody-coupled Protein A Dynabeads 16 h at 4°C; blot for flot-1; anti-flag antibody as IgG control
T1 sequence: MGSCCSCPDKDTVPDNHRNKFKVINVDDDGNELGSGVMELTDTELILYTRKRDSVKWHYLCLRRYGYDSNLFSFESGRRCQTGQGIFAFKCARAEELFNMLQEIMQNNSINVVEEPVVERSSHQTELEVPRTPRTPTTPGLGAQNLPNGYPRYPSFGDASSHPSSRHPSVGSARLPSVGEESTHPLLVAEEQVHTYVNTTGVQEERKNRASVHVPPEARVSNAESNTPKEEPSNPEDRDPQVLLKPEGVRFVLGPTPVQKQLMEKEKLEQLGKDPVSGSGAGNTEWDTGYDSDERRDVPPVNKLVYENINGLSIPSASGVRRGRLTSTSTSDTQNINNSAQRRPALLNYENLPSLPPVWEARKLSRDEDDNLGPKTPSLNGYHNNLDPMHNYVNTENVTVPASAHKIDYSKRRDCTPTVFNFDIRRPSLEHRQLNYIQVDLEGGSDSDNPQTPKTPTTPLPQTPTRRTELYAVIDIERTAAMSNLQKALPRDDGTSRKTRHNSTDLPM

FL FRS2 GST fusion [2] = biological target: T2, FL FRS2 GST fusion (UniProt Q8WU20); assay: pull-down; GST-FRS2 fusions immobilised on glutathione-sepharose beads, incubated with HeLa cell lysate (50 mM Tris pH 7.4, 0.15 M NaCl, 2 mM EDTA, 1% NP-40) over night at 4°C; blot for endogenous flot-1; only the target purified
T2 sequence: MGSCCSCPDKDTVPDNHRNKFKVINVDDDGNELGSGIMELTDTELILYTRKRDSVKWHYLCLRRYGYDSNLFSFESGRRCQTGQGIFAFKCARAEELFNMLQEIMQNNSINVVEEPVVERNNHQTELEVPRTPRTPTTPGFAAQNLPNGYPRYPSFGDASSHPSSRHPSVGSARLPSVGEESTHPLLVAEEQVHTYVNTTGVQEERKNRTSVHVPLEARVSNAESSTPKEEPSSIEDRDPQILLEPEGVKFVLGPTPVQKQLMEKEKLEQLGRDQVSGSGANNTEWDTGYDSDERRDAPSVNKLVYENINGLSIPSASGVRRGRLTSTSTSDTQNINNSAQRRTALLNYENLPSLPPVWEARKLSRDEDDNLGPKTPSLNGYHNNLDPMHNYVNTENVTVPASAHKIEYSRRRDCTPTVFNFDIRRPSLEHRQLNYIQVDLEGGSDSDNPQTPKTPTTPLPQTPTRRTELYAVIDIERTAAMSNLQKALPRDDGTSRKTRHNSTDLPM

FL FRS2 GST fusion [3] = biological target: T2, FL FRS2 GST fusion; assay: pull-down; competition: purified FRS2-GST on beads, lysates of HeLa cells transfected with increasing amounts of FGFR-myc (0.5-2 µg DNA; empty pcDNA3 as control); blot for endogenous flot-1; only the target purified
[4] = biological target: T3, flotillin-2/reggie-1, two-hybrid fusion (UniProt Q9Z2S9); assay: two-hybrid; pairwise cotransformation of bait and prey in yeast AH109 (Matchmaker GAL4 Two-Hybrid System 3); growth of blue colonies on SD/-Ade/-His/-Leu/-Trp/X-α-gal plates, photographed after 3 days
T3 sequence: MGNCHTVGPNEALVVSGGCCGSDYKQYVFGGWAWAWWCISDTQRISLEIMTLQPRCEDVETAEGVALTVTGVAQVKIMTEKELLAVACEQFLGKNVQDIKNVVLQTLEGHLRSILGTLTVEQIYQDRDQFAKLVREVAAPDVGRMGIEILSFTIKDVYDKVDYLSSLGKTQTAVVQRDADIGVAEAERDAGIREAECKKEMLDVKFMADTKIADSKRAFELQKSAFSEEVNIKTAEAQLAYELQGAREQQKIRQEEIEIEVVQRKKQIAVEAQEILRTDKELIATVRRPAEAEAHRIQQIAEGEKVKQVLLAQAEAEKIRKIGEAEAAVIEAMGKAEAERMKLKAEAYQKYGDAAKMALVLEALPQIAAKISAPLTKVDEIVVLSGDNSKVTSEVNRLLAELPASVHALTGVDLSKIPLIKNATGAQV

[5] = biological target: T4, Full-length (FL) flotillin-1/reggie-2, two-hybrid bait in pGBKT7 (rat) (UniProt Q9Z1E1); assay: as above
T4 sequence: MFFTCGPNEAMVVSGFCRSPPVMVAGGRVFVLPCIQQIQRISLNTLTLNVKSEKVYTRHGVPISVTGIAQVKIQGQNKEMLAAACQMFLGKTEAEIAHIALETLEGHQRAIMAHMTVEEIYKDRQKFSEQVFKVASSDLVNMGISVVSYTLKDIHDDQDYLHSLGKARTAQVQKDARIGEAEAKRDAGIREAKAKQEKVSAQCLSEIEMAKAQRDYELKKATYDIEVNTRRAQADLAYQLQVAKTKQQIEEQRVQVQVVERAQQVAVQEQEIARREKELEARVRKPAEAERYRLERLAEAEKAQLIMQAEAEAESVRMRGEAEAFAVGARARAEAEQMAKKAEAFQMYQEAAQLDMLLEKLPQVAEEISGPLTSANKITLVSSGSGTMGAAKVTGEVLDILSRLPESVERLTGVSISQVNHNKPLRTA

B1: endogenous flotillin-1 from mouse tissue (brain, liver, kidney) (protein, UniProt O08917 1-428)
chain: T4 sequence with V327I
[1]
  binding: binds

B2: endogenous flotillin-1 from HeLa cell lysates (protein, UniProt O75955 1-427)
chain: MFFTCGPNEAMVVSGFCRSPPVMVAGGRVFVLPCIQQIQRISLNTLTLNVKSEKVYTRHGVPISVTGIAQVKIQGQNKEMLAAACQMFLGKTEAEIAHIALETLEGHQRAIMAHMTVEEIYKDRQKFSEQVFKVASSDLVNMGISVVSYTLKDIHDDQDYLHSLGKARTAQVQKDARIGEAEAKRDAGIREAKAKQEKVSAQYLSEIEMAKAQRDYELKKAAYDIEVNTRRAQADLAYQLQVAKTKQQIEEQRVQVQVVERAQQVAVQEQEIARREKELEARVRKPAEAERYKLERLAEAEKSQLIMQAEAEAASVRMRGEAEAFAIGARARAEAEQMAKKAEAFQLYQEAAQLDMLLEKLPQVAEEISGPLTSANKITLVSSGSGTMGAAKVTGEVLDILTRLPESVERLTGVSISQVNHKPLRTA
FL FRS2 GST fusion [2]
  binding: binds
FL FRS2 GST fusion [3]
  binding: binds

B3: FRS2-His (protein)
chain: T2 sequence
[4]
  binding: no binding
[5]
  binding: binds
